These are yes or no findings as the source states them, for the method shown. Some results given as binding are weak or reduced against the parent protein; the word gives no strength. Where a sequence is shown, tags or fusion partners need not be part of it.

Among the data in paper PMC10958042 are binding values, retold here.

In assay [1] the target is T1, Adipose triglyceride lipase (ATGL), full-length human, wild type, yeast two-hybrid fusion (human) (UniProt Q96AD5).
T1 sequence: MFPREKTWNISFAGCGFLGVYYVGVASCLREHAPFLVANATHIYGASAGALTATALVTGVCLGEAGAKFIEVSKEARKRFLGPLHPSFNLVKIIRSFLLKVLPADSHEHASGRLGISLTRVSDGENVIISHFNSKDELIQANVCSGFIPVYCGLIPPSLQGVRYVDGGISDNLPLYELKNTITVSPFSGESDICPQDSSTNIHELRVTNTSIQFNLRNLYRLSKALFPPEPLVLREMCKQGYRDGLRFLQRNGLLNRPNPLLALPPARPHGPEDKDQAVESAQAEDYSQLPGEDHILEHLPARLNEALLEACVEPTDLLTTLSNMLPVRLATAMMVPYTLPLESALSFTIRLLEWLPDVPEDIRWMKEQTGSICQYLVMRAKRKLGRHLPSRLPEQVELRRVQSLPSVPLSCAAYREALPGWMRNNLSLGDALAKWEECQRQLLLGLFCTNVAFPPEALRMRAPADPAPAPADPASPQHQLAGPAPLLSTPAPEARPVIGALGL
In words: two-hybrid; Y2H assay system, wild-type full-length human ATGL against wild-type partners.

Assay [2] concerns the target T2, Adipose triglyceride lipase (ATGL), full-length human, wild type, yeast two-hybrid fusion (human), Q96AD5.
T2 chain: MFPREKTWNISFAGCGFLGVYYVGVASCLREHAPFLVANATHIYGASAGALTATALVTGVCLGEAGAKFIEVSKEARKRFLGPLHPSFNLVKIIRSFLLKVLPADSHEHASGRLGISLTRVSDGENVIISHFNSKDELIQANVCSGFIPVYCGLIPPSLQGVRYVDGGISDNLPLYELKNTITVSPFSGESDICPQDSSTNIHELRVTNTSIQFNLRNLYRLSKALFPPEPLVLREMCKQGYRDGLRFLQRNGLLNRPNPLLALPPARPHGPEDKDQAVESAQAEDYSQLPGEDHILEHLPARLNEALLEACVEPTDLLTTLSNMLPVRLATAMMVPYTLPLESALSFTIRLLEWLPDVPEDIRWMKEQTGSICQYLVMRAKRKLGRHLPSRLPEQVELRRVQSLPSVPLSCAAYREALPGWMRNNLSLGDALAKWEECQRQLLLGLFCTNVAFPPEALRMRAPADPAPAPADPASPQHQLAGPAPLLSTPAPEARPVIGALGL
The assay is described as above. The note with it: remark: other sources report otherwise.

B1: CIDEC (cell death-inducing DFFA-like effector c), wild type, yeast two-hybrid fusion (protein, UniProt Q96AQ7 1-238)
chain: MEYAMKSLSLLYPKSLSRHVSVRTSVVTQQLLSEPSPKAPRARPCRVSTADRSVRKGIMAYSLEDLLLKVRDTLMLADKPFFLVLEEDGTTVETEEYFQALAGDTVFMVLQKGQKWQPPSEQGTRHPLSLSHKPAKKIDVARVTFDLYKLNPQDFIGCLNVKATFYDTYSLSYDLHCCGAKRIMKEAFRWALFSMQATGHVLLGTSCYLQQLLDATEEGQPPKGKASSLIPTCLKILQ
Regarding B1, in assay [1], the binding result is on record as “binds”.

B2: G0S2 (G0/G1 switch gene 2), wild type, yeast two-hybrid fusion (protein, UniProt P27469 1-103)
chain: METVQELIPLAKEMMAQKRKGKMVKLYVLGSVLALFGVVLGLMETVCSPFTAARRLRDQEAAVAELQAALERQALQKQALQEKGKQQDTVLGGRALSNRQHAS
Consider B2, for which the binding result in assay [1] is listed as “binds”.

B3: CGI-58, wild type, yeast two-hybrid fusion, Q8WTS1 1-349 (protein)
chain: MAAEEEEVDSADTGERSGWLTGWLPTWCPTSISHLKEAEEKMLKCVPCTYKKEPVRISNGNKIWTLKFSHNISNKTPLVLLHGFGGGLGLWALNFGDLCTNRPVYAFDLLGFGRSSRPRFDSDAEEVENQFVESIEEWRCALGLDKMILLGHNLGGFLAAAYSLKYPSRVNHLILVEPWGFPERPDLADQDRPIPVWIRALGAALTPFNPLAGLRIAGPFGLSLVQRLRPDFKRKYSSMFEDDTVTEYIYHCNVQTPSGETAFKNMTIPYGWAKRPMLQRIGKMHPDIPVSVIFGARSCIDGNSGTSIQSLRPHSYVKTIAILGAGHYVYADQPEEFNQKVKEICDTVD
Take B3: the binding result in assay [2] is reported as “binds”.
